According to paper PMC5511132:

B1: BTB/POZ domain-containing protein2 (protein, UniProt Q9BX70 1-525)
chain: MAAGGSGGRASCPPGVGVGPGTGGSPGPSANAAATPAPGNAAAAAAAAAAAAAAPGPTPPAPPGPGTDAQAAGAERAEEAAGPGAAALQREAAYNWQASKPTVQERFAFLFNNEVLCDVHFLVGKGLSSQRIPAHRFVLAVGSAVFDAMFNGGMATTSTEIELPDVEPAAFLALLKFLYSDEVQIGPETVMTTLYTAKKYAVPALEAHCVEFLKKNLRADNAFMLLTQARLFDEPQLASLCLENIDKNTADAITAEGFTDIDLDTLVAVLERDTLGIREVRLFNAVVRWSEAECQRQQLQVTPENRRKVLGKALGLIRFPLMTIEEFAAGPAQSGILVDREVVSLFLHFTVNPKPRVEFIDRPRCCLRGKECSINRFQQVESRWGYSGTSDRIRFSVNKRIFVVGFGLYGSIHGPTDYQVNIQIIHTDSNTVLGQNDTGFSCDGSASTFRVMFKEPVEVLPNVNYTACATLKGPDSHYGTKGLRKVTHESPTTGAKTCFTFCYAAGNNNGTSVEDGQIPEVIFYT
B2: Putative postmeiotic segregation increased 2-like protein 1 (protein, UniProt A4D2B8 1-440)
chain: MVTMCGGHRPENFLHQVLTEFGEELAGEGKSEVGGGAPRSYLQVASAECWAAAPAVHVGEPVHAGGLHTERGADPVIGLYLVHRGGACQTPTVGNRQTPTLGIHARPRRRATTSLLTLLLAFGKNAVRCALIGPGSLTSRTRPLTEPLGEKERREVFFPPRPERVEHNVESSRWEPRRRGACGSRGGNFPSPRGGSGVASLERAESSSTEPAKAIKPIDRKSVHQICSGPVVPSLSTAVKELVENSLDAGATNIDLKLKDYGVDLIEVSGNGCGVEEENFEGLTLKHHTSKIQEFADLPQVETFGFRGEALSSLCALSDVTISTCHVSAKVGTRLVFDHYGKIIQKTPYPHPRGMTVSVKQLFSTLPVHHKEFQRNIKKKRACFPFAFCRDCQFPEASPAMLPVQPAELTPRSTPPHPCSLEDNVITVFSSVKNGPGSSR
B3: HORMA domain-containing protein1 (protein, UniProt Q86X24 1-394)
chain: MATAQLQRTPMSALVFPNKISTEHQSLVLVKRLLAVSVSCITYLRGIFPECAYGTRYLDDLCVKILREDKNCPGSTQLVKWMLGCYDALQKKYLRMVVLAVYTNPEDPQTISECYQFKFKYTNNGPLMDFISKNQSNESSMLSTDTKKASILLIRKIYILMQNLGPLPNDVCLTMKLFYYDEVTPPDYQPPGFKDGDCEGVIFEGEPMYLNVGEVSTPFHIFKVKVTTERERMENIDSTILSPKQIKTPFQKILRDKDVEDEQEHYTSDDLDIETKMEEQEKNPASSELEEPSLVCEEDEIMRSKESPDLSISHSQVEQLVNKTSELDMSESKTRSGKVFQNKMANGNQPVKSSKENRKRSQHESGRIVLHHFDSSSQESVPKRRKFSEPKEHI
B4: E3 SUMO-protein ligase NSE2 (protein, UniProt Q96MF7 1-247)
chain: MPGRSSSNSGSTGFISFSGVESALSSLKNFQACINSGMDTASSVALDLVESQTEVSSEYSMDKAMVEFATLDRQLNHYVKAVQSTINHVKEERPEKIPDLKLLVEKKFLALQSKNSDADFQNNEKFVQFKQQLKELKKQCGLQADREADGTEGVDEDIIVTQSQTNFTCPITKEEMKKPVKNKVCGHTYEEDAIVRMIESRQKRKKKAYCPQIGCSHTDIRKSDLIQDEALRRAIENHNKKRHRHSE
B5: Quinone oxidoreductase-like protein1 (protein, UniProt O95825 1-349)
chain: MKGLYFQQSSTDEEITFVFQEKEDLPVTEDNFVKLQVKACALSQINTKLLAEMKMKKDLFPVGREIAGIVLDVGSKVSFFQPDDEVVGILPLDSEDPGLCEVVRVHEHYLVHKPEKVTWTEAAGSIRDGVRAYTALHYLSHLSPGKSVLIMDGASAFGTIAIQLAHHRGAKVISTACSLEDKQCLERFRPPIARVIDVSNGKVHVAESCLEETGGLGVDIVLDAGVRLYSKDDEPAVKLQLLPHKHDIITLLGVGGHWVTTEENLQLDPPDSHCLFLKGATLAFLNDEVWNLSNVQQGKYLCILKDVMEKLSTGVFRPQLDEPIPLYEAKVSMEAVQKNQGRKKQVVQF
B6: DNA-binding protein SMUBP-2 (protein, UniProt P38935 1-993)
chain: MASAAVESFVTKQLDLLELERDAEVEERRSWQENISLKELQSRGVCLLKLQVSSQRTGLYGRLLVTFEPRRYGSAAALPSNSFTSGDIVGLYDAANEGSQLATGILTRVTQKSVTVAFDESHDFQLSLDRENSYRLLKLANDVTYRRLKKALIALKKYHSGPASSLIEVLFGRSAPSPASEIHPLTFFNTCLDTSQKEAVLFALSQKELAIIHGPPGTGKTTTVVEIILQAVKQGLKVLCCAPSNIAVDNLVERLALCKQRILRLGHPARLLESIQQHSLDAVLARSDSAQIVADIRKDIDQVFVKNKKTQDKREKSNFRNEIKLLRKELKEREEAAMLESLTSANVVLATNTGASADGPLKLLPESYFDVVVIDECAQALEASCWIPLLKARKCILAGDHKQLPPTTVSHKAALAGLSLSLMERLAEEYGARVVRTLTVQYRMHQAIMRWASDTMYLGQLTAHSSVARHLLRDLPGVAATEETGVPLLLVDTAGCGLFELEEEDEQSKGNPGEVRLVSLHIQALVDAGVPARDIAVVSPYNLQVDLLRQSLVHRHPELEIKSVDGFQGREKEAVILSFVRSNRKGEVGFLAEDRRINVAVTRARRHVAVICDSRTVNNHAFLKTLVEYFTQHGEVRTAFEYLDDIVPENYSHENSQGSSHAATKPQGPATSTRTGSQRQEGGQEAAAPARQGRKKPAGKSLASEAPSQPSLNGGSPEGVESQDGVDHFRAMIVEFMASKKMQLEFPPSLNSHDRLRVHQIAEEHGLRHDSSGEGKRRFITVSKRAPRPRAALGPPAGTGGPAPLQPVPPTPAQTEQPPREQRGPDQPDLRTLHLERLQRVRSAQGQPASKEQQASGQQKLPEKKKKKAKGHPATDLPTEEDFEALVSAAVKADNTCGFAKCTAGVTTLGQFCQLCSRRYCLSHHLPEIHGCGERARAHARQRISREGVLYAGSGTKNGSLDPAKRAQLQRRLDKKLSELSNQRTSRRKERGT
B7: Fanconi anemia group A protein (protein, UniProt O15360 1-1455)
chain: MSDSWVPNSASGQDPGGRRRAWAELLAGRVKREKYNPERAQKLKESAVRLLRSHQDLNALLLEVEGPLCKKLSLSKVIDCDSSEAYANHSSSFIGSALQDQASRLGVPVGILSAGMVASSVGQICTAPAETSHPVLLTVEQRKKLSSLLEFAQYLLAHSMFSRLSFCQELWKIQSSLLLEAVWHLHVQGIVSLQELLESHPDMHAVGSWLFRNLCCLCEQMEASCQHADVARAMLSDFVQMFVLRGFQKNSDLRRTVEPEKMPQVTVDVLQRMLIFALDALAAGVQEESSTHKIVRCWFGVFSGHTLGSVISTDPLKRFFSHTLTQILTHSPVLKASDAVQMQREWSFARTHPLLTSLYRRLFVMLSAEELVGHLQEVLETQEVHWQRVLSFVSALVVCFPEAQQLLEDWVARLMAQAFESCQLDSMVTAFLVVRQAALEGPSAFLSYADWFKASFGSTRGYHGCSKKALVFLFTFLSELVPFESPRYLQVHILHPPLVPGKYRSLLTDYISLAKTRLADLKVSIENMGLYEDLSSAGDITEPHSQALQDVEKAIMVFEHTGNIPVTVMEASIFRRPYYVSHFLPALLTPRVLPKVPDSRVAFIESLKRADKIPPSLYSTYCQACSAAEEKPEDAALGVRAEPNSAEEPLGQLTAALGELRASMTDPSQRDVISAQVAVISERLRAVLGHNEDDSSVEISKIQLSINTPRLEPREHMAVDLLLTSFCQNLMAASSVAPPERQGPWAALFVRTMCGRVLPAVLTRLCQLLRHQGPSLSAPHVLGLAALAVHLGESRSALPEVDVGPPAPGAGLPVPALFDSLLTCRTRDSLFFCLKFCTAAISYSLCKFSSQSRDTLCSCLSPGLIKKFQFLMFRLFSEARQPLSEEDVASLSWRPLHLPSADWQRAALSLWTHRTFREVLKEEDVHLTYQDWLHLELEIQPEADALSDTERQDFHQWAIHEHFLPESSASGGCDGDLQAACTILVNALMDFHQSSRSYDHSENSDLVFGGRTGNEDIISRLQEMVADLELQQDLIVPLGHTPSQEHFLFEIFRRRLQALTSGWSVAASLQRQRELLMYKRILLRLPSSVLCGSSFQAEQPITARCEQFFHLVNSEMRNFCSHGGALTQDITAHFFRGLLNACLRSRDPSLMVDFILAKCQTKCPLILTSALVWWPSLEPVLLCRWRRHCQSPLPRELQKLQEGRQFASDFLSPEAASPAPNPDWLSAAALHFAIQQVREENIRKQLKKLDCEREELLVFLFFFSLMGLLSSHLTSNSTTDLPKAFHVCAAILECLEKRKISWLALFQLTESDLRLGRLLLRVAPDQHTRLLPFAFYSLLSYFHEDAAIREEAFLHVAVDMYLKLVQLFVAGDTSTVSPPAGRSLELKGQGNPVELITKARLFLLQLIPRCPKKSFSHVAELLADRGDCDPEVSAALQSRQQAAPDADLSQEPHLF

Target: FLAG-tagged wild-type NEK1 (human)
Experiment: affinity purification with mass spectrometry; NEK1-FLAG (control GFP-FLAG) expressed in HEK293T, cells untreated or treated with 10 ug/mL cisplatin for 24 h; lysis in 50 mM Tris-HCl pH 7.4, 150 mM NaCl, 1 mM EDTA, 1% Triton X-100; lysate incubated overnight with anti-FLAG M2 Affinity Gel; SDS-PAGE, LC-MS/MS; proteome and phosphoproteome analyses; only proteins absent from GFP-FLAG controls

binding, binds:
B1
B2
B3
B4
B5
B6
B7

These are yes or no findings as the source states them, for the method shown. Binding seen in cells or lysates may run through a third protein. A yes stands for co-enrichment or nearness to the bait. Other partners may have been found.
